# According to the supplement of paper PMC8728848:
# Some of the results follow.
# B1: EfCBM33A (Enterococcus faecalis), Q838S1 (protein)
# chain: MKKSLLTIVLAFSFVLGGAALAPTVSEAHGYVASPGSRAFFGSSAGGNLNTNVGRAQWEPQSIEAPKNTFITGKLASAGVSGFEPLDEQTATRWHKTNITTGPLDITWNLTAQHRTASWDYYITKNGWNPNQPLDIKNFDKIASIDGKQEVPNKVVKQTINIPTDRKGYHVIYAVWGIGDTVNAFYQAIDVNIQ
# Key:
# Assay in all cases: glycan array binding signal (z-score within array); higher = stronger binding
# Conditions in all cases: glycan notation: IUPAC condensed, linker removed
# [1] = target: Fuc(a1-2)Gal6S(b1-3)GlcNAc
# How it was run: (§1)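 The Consortium for Functional Glycomics database supplied 3228 glycan arrays, of which those lacking an available protein sequence were dropped. The binding signal, a within-array Z-score, was averaged across arrays of the same protein sequence and across linkers. Negative scores can be read as non-binding.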
# [2] = target: Fuc(a1-2)Gal6S(b1-3)GlcNAc6S
# How it was run: as §1
# Fuc(a1-2)Gal6S(b1-4)Glc = target: Fuc(a1-2)Gal6S(b1-4)Glc
# How it was run: as §1
# [3] = target: Fuc(a1-2)Gal6S(b1-4)Glc6S
# How it was run: as §1
# Fuc(a1-2)[Gal(a1-3)]Gal = target: Fuc(a1-2)[Gal(a1-3)]Gal
# How it was run: as §1
# [4] = target: Fuc(a1-2)[Gal(a1-3)]Gal(b1-3)GalNAc
# How it was run: as §1
# [5] = target: Fuc(a1-2)[Gal(a1-3)]Gal(b1-3)GalNAc(b1-3)Gal(a1-4)Gal(b1-4)Glc
# How it was run: as §1
# [6] = target: Fuc(a1-2)[Gal(a1-3)]Gal(b1-3)GlcNAc
# How it was run: as §1
# [7] = target: Fuc(a1-2)[Gal(a1-3)]Gal(b1-3)GlcNAc(b1-2)Man(a1-3)[Fuc(a1-2)[Gal(a1-3)]Gal(b1-3)GlcNAc(b1-2)Man(a1-6)]Man(b1-4)GlcNAc(b1-4)GlcNAc
# How it was run: as §1
# [8] = target: Fuc(a1-2)[Gal(a1-3)]Gal(b1-3)GlcNAc(b1-2)Man(a1-3)[Fuc(a1-2)[Gal(a1-3)]Gal(b1-3)GlcNAc(b1-2)Man(a1-6)]Man(b1-4)GlcNAc(b1-4)[Fuc(a1-6)]GlcNAc
# How it was run: as §1
# [9] = target: Fuc(a1-2)[Gal(a1-3)]Gal(b1-3)GlcNAc(b1-3)GalNAc
# How it was run: as §1
# [10] = target: Fuc(a1-2)[Gal(a1-3)]Gal(b1-3)GlcNAc(b1-6)GalNAc
# How it was run: as §1
# [11] = target: Fuc(a1-2)[Gal(a1-3)]Gal(b1-4)Glc
# How it was run: as §1
# [12] = target: Fuc(a1-2)[Gal(a1-3)]Gal(b1-4)GlcNAc
# How it was run: as §1
# [13] = target: Fuc(a1-2)[Gal(a1-3)]Gal(b1-4)GlcNAc(b1-2)Man
# How it was run: as §1
# [14] = target: Fuc(a1-2)[Gal(a1-3)]Gal(b1-4)GlcNAc(b1-2)Man(a1-3)[Fuc(a1-2)[Gal(a1-3)]Gal(b1-4)GlcNAc(b1-2)Man(a1-6)]Man(b1-4)GlcNAc(b1-4)GlcNAc
# How it was run: as §1
# [15] = target: Fuc(a1-2)[Gal(a1-3)]Gal(b1-4)GlcNAc(b1-2)Man(a1-3)[Fuc(a1-2)[Gal(a1-3)]Gal(b1-4)GlcNAc(b1-2)Man(a1-6)]Man(b1-4)GlcNAc(b1-4)[Fuc(a1-6)]GlcNAc
# How it was run: as §1
# [16] = target: Fuc(a1-2)[Gal(a1-3)]Gal(b1-4)GlcNAc(b1-3)GalNAc
# How it was run: as §1
# [17] = target: Fuc(a1-2)[Gal(a1-3)]Gal(b1-4)GlcNAc(b1-3)[Fuc(a1-2)[Gal(a1-3)]Gal(b1-4)GlcNAc(b1-6)]GalNAc
# How it was run: as §1
# [18] = target: Fuc(a1-2)[Gal(a1-3)]Gal(b1-4)GlcNAc(b1-6)GalNAc
# How it was run: as §1
# [19] = target: Fuc(a1-2)[Gal(a1-3)]Gal(b1-4)[Fuc(a1-3)]Glc
# How it was run: as §1
# [20] = target: Fuc(a1-2)[Gal(a1-3)]Gal(b1-4)[Fuc(a1-3)]GlcNAc
# How it was run: as §1
binder,measurement,setting,value
B1,glycan array binding signal (z-score),[1],-0.522
same,glycan array binding signal (z-score),[2],1.01
same,glycan array binding signal (z-score),Fuc(a1-2)Gal6S(b1-4)Glc,-0.329
same,glycan array binding signal (z-score),[3],0.347
same,glycan array binding signal (z-score),Fuc(a1-2)[Gal(a1-3)]Gal,0.59
same,glycan array binding signal (z-score),[4],0.401
same,glycan array binding signal (z-score),[5],-0.242
same,glycan array binding signal (z-score),[6],-0.298
same,glycan array binding signal (z-score),[7],-0.46
same,glycan array binding signal (z-score),[8],0.379
same,glycan array binding signal (z-score),[9],-0.33
same,glycan array binding signal (z-score),[10],-0.352
same,glycan array binding signal (z-score),[11],0.717
same,glycan array binding signal (z-score),[12],-0.311
same,glycan array binding signal (z-score),[13],-0.036
same,glycan array binding signal (z-score),[14],-0.338
same,glycan array binding signal (z-score),[15],0.533
same,glycan array binding signal (z-score),[16],-0.661
same,glycan array binding signal (z-score),[17],1.3
same,glycan array binding signal (z-score),[18],-0.215
same,glycan array binding signal (z-score),[19],-1.02
same,glycan array binding signal (z-score),[20],-0.221

# Shown tab-delimited: entries from further up
binder	measurement	setting	value
B1	glycan array binding signal (z-score)	[8]	0.379
same	glycan array binding signal (z-score)	[9]	-0.33
